From the supplement of paper PMC10849652
The list shows a part of the results.

Sequences of proteins named here, by UniProt entry; tags and fusion partners are left off. A change or cut given only in a name is not applied to a line headed by its entry.
UniProt Q8N697: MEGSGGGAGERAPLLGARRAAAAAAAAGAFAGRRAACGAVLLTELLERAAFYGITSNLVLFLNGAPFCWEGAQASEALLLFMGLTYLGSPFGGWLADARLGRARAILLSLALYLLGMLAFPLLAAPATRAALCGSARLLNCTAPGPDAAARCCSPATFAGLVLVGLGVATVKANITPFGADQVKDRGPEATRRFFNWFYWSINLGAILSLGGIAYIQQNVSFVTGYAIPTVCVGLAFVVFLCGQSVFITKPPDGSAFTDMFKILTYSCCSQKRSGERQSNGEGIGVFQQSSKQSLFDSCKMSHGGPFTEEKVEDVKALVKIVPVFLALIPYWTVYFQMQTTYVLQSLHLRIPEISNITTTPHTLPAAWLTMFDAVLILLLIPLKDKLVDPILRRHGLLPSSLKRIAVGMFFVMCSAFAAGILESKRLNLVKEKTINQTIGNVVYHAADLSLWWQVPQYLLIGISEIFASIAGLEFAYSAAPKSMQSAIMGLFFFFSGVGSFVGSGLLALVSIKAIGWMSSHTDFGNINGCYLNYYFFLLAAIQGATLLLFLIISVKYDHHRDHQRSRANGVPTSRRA
UniProt Q8N8R3: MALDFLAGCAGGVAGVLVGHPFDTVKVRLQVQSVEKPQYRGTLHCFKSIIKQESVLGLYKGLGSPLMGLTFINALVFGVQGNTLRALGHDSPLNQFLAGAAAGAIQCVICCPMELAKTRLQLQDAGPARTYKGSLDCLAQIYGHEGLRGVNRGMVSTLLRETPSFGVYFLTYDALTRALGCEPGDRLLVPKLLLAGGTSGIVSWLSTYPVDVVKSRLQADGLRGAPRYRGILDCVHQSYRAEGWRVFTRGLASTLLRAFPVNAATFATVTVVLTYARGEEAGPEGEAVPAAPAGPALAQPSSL
UniProt F5GZS6: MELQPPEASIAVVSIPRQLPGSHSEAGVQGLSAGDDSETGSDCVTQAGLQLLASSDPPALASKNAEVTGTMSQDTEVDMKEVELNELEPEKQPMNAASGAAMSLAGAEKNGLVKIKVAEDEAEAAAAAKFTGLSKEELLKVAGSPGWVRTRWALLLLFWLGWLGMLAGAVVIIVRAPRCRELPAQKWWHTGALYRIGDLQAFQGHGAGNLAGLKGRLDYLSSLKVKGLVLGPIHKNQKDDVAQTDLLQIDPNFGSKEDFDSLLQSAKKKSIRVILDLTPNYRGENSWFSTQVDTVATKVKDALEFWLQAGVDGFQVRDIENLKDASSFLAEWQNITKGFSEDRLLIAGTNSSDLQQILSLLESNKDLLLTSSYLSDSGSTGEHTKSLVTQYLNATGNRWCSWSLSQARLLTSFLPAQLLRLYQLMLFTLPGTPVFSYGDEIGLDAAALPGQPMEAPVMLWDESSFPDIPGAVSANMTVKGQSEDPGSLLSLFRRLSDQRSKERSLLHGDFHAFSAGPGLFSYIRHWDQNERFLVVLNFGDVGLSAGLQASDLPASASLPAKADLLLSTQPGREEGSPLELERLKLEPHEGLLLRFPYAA
UniProt Q3KQZ1: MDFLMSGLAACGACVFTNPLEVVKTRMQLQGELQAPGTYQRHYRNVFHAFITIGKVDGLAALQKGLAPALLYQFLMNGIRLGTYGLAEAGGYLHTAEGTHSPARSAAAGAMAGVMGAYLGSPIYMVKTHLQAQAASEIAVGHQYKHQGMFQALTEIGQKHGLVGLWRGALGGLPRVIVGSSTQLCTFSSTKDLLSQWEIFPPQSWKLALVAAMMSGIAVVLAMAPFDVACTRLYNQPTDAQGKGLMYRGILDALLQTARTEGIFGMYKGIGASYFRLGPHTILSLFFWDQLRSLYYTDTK
UniProt P43003, whole entry, looked up: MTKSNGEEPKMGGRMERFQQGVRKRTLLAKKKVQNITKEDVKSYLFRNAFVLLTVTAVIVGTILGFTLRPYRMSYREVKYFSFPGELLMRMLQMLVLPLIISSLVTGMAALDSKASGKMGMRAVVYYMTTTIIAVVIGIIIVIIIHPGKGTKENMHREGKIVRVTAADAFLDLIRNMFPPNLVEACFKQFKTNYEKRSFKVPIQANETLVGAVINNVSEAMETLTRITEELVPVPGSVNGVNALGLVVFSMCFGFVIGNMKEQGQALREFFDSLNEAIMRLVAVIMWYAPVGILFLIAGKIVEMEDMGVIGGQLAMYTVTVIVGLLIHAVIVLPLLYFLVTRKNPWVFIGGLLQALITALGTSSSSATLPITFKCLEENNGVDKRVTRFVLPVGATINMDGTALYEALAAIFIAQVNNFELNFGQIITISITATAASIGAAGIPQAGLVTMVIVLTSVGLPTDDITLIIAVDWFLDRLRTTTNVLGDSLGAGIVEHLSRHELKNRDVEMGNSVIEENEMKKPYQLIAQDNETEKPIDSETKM
UniProt Q9NQQ7: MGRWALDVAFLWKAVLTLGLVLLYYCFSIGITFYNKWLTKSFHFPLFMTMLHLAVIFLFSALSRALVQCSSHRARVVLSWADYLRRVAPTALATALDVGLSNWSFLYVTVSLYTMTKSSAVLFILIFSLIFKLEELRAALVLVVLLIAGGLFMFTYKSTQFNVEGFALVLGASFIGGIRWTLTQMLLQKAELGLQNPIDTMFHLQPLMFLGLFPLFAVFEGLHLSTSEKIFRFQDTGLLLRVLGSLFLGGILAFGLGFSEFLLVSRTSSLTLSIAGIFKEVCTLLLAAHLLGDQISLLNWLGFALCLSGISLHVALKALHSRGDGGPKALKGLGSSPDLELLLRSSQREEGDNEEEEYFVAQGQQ
UniProt Q6ZP29: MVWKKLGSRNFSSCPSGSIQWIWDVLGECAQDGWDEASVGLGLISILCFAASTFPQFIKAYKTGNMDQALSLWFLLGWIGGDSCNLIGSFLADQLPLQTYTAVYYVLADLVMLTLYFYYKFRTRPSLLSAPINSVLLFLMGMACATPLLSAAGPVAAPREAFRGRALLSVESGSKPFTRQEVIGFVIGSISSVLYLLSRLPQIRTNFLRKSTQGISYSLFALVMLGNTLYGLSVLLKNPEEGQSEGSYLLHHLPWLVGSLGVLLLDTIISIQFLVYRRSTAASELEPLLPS
UniProt O95258: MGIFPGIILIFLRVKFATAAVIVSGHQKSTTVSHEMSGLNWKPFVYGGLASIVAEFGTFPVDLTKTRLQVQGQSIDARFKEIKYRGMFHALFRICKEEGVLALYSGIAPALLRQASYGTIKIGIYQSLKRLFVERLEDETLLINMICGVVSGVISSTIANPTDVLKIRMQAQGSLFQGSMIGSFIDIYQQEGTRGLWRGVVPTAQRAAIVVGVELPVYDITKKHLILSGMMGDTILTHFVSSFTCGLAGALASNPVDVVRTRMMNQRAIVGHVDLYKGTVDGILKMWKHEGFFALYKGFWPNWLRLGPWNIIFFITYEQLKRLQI
UniProt Q96NT5: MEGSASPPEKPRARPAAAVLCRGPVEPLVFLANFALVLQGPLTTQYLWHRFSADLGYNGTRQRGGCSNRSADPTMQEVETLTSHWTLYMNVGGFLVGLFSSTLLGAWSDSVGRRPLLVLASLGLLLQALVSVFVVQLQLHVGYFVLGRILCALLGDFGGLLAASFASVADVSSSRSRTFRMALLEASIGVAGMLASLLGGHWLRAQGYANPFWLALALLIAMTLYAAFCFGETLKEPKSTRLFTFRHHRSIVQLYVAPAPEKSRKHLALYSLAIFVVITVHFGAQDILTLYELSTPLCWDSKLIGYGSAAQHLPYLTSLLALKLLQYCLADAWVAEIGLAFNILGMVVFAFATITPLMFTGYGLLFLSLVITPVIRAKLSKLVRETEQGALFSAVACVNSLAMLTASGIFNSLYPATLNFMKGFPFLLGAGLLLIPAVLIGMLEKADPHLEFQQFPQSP
UniProt Q9HAB3: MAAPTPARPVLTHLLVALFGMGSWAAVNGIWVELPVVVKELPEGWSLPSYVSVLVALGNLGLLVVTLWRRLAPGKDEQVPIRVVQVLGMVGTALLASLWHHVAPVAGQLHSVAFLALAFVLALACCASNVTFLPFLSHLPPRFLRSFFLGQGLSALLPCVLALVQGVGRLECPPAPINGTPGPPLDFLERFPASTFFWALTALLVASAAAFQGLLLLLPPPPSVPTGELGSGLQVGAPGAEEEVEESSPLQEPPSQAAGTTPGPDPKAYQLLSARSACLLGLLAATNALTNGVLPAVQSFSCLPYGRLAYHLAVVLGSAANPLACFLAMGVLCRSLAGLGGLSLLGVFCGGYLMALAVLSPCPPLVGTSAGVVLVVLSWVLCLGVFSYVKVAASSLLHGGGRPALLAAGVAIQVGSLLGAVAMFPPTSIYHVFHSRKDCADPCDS
UniProt Q96K37: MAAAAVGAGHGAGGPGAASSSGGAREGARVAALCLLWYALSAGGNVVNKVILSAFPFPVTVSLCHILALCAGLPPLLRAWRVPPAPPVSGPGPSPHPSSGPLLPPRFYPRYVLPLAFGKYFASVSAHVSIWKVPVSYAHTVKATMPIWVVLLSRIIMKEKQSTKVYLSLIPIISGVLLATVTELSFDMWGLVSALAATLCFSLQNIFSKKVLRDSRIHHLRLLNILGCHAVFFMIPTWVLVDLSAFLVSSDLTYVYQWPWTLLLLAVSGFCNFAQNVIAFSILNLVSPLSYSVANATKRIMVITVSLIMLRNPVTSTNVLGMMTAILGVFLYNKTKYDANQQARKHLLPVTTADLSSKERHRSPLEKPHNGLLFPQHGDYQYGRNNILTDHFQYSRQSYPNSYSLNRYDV
UniProt Q9BRV3: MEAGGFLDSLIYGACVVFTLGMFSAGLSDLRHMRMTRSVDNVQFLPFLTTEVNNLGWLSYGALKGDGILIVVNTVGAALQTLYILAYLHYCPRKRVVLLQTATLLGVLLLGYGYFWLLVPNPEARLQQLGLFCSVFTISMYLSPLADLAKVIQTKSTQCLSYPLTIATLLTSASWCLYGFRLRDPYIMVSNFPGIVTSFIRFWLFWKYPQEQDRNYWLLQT
UniProt A1A5C7: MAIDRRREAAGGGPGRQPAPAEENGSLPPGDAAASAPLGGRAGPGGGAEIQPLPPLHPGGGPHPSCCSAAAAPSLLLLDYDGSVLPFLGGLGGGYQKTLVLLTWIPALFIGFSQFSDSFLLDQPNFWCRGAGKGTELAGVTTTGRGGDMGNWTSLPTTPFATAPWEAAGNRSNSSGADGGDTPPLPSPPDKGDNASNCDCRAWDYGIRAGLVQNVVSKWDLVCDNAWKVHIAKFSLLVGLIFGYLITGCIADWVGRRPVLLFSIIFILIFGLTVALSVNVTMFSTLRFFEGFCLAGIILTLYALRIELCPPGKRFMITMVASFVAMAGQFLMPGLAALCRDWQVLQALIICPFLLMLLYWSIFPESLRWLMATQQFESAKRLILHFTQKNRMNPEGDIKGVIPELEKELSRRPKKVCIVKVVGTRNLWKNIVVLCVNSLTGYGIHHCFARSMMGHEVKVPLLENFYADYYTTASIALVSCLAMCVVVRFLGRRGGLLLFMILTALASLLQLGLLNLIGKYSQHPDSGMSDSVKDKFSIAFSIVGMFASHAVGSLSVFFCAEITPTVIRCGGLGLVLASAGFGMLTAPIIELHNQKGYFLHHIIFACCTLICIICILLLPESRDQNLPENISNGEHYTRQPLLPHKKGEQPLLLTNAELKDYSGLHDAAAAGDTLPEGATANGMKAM
UniProt O15431: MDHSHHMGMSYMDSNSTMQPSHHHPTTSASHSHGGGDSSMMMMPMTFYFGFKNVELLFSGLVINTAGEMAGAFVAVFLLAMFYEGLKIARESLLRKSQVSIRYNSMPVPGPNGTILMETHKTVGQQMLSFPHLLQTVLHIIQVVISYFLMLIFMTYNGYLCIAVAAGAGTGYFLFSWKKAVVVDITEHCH
UniProt Q0GE19: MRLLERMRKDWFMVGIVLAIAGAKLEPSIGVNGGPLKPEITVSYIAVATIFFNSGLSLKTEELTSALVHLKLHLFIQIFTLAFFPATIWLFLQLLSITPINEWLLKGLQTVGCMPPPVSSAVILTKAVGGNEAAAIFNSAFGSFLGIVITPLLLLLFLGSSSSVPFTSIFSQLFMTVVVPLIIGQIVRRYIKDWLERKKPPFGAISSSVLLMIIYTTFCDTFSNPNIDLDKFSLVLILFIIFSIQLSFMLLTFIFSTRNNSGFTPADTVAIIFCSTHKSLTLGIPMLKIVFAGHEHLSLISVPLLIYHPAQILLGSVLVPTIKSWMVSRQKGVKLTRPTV
UniProt Q96A29: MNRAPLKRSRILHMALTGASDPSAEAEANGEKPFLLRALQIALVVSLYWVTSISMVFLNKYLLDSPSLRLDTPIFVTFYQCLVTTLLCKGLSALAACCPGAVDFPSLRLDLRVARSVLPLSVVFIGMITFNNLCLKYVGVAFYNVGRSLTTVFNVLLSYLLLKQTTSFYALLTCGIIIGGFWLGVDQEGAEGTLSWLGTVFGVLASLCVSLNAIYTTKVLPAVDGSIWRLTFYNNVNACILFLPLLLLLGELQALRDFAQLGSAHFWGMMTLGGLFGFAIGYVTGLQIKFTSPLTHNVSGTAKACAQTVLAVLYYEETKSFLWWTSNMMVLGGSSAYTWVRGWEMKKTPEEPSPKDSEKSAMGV
UniProt Q6P1K1: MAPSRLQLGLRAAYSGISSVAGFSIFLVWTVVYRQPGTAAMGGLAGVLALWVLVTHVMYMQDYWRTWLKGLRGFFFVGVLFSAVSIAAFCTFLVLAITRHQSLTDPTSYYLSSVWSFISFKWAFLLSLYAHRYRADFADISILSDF

compound: c1cc(OCCN2CCCCC2)cc(-c2n[nH]c3ccc(-c4nnc[nH]4)cc23)c1; assay: log2 fold change, soluble protein after heating vs DMSO (PISA); higher = thermal stabilisation; K562 cells, 10 uM, 30 min; active = over 0.2 and 3.5 SD of the protein, either way, in both replicates (recomputed)
How it was run: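 Aliquots of K562 cells (2×10^6 cells/mL) treated with 10 μM compound for 30 min were heated for 3 min over 48°C-58°C. After pooling and extraction in PBS with 0.5% NP-40 at 4°C, soluble protein from a 21,000xg, 90 min spin was quantified by TMTpro 16plex LC-MS/MS with channel sums equalised. Thermal stability is expressed against control samples, from duplicates, as a log2 fold change.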

log2 fold change, inactive:
SLC15A4 (UniProt Q8N697) -0.017
SLC25A29 (UniProt Q8N8R3) -0.287
SLC3A2 (UniProt F5GZS6) -0.339
SLC25A35 (UniProt Q3KQZ1) -0.094
SLC1A3 (UniProt P43003) -0.182
SLC35C2 isoform 3 (UniProt Q9NQQ7) 0.117
SLC66A1 (UniProt Q6ZP29) -0.038
SLC25A14 isoform 3 (UniProt O95258) -0.071
SLC46A1 (UniProt Q96NT5) 0.01
SLC52A2 (UniProt Q9HAB3) -0.004
SLC35E1 (UniProt Q96K37) -0.088
SLC50A1 (UniProt Q9BRV3) -0.186
SLC22A23 (UniProt A1A5C7) 0.163
SLC31A1 (UniProt O15431) -0.048
SLC10A7 isoform 1 (UniProt Q0GE19) -0.088
SLC35C1 (UniProt Q96A29) 0.025
SLC48A1 (UniProt Q6P1K1) -0.006

Looked up one by one from the list above:
log2 fold change, inactive:
SLC35C1 (UniProt Q96A29) 0.025
SLC10A7 isoform 1 (UniProt Q0GE19) -0.088
